Results published in PubChem BioAssay AID2685 (National Center for Advancing Translational Sciences (NCATS), 2010).
The list shows a part of the results. Shown are side measurements of this screen, not its main read-out; they come without a call. Most of these compounds were active or inconclusive in the main read-out, so they are no random draw. The note in brackets gives the kind of curve behind each potency; many fits are weak.

Assay: qHTS Assay for Lipid Storage Modulators in Drosophila S3 Cells;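 as to cell number change: cells counted by Cell Tracker Red CMTPX staining in the red channel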
Details: BODIPY lipid droplet fluorescence, 18-24 h; for cell number change: measured here: cell count max response, cells fed with added oleic acid
Summary of the method: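 Drosophila S3 cells loaded with oleic acid (400 uM, as added) and compounds at several concentrations; lipid droplets imaged by 488-nm laser-scanning cytometry, 500–530 nm intensity and object ratio to cell channel. Percent activity normalized to 20 uM Triacsin C.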

[1] = measured here: cell number channel AC50, cells fed with added oleic acid
[2] = measured here: lipid fluorescence (Fed channel) AC50, cells fed with added oleic acid

N#C/C(=C\c1ccncc1)c1nc2ccccc2[nH]1
AC50 [1]: 4.11 µM [rising, single point]

CC(=O)Nc1ccc(S(=O)(=O)N2CCN(c3nnnn3-c3ccccc3)CC2)cc1
cell number change: -50.2% | AC50 [1]: 4.11 µM [falling, full curve, poor fit] | AC50 [2]: 7.31 µM [falling, partial curve]

Cc1cc(C)c(C)c(S(=O)(=O)N(C)C2CCN(C)CC2)c1C
cell number change: 36.6% | AC50 [1]: 2.59 µM [rising, full curve]

O=C(O)C1=CC(=C(c2ccc(O)c(C(=O)O)c2)c2ccc(O)c(C(=O)O)c2)C=CC1=O
cell number change: 1.75% | AC50 [2]: 29.1 µM [rising, single point]

c1ccc2c(N3CCOCC3)c3c(nc2c1)CCC3
cell number change: -7.33% | AC50 [2]: 0.651 µM [falling, single point]

COc1ccc(Cl)cc1NC(=O)CCCC(=O)c1ccccc1
cell number change: -59.1% | AC50 [1]: 14.6 µM [falling, partial curve] | AC50 [2]: 10.3 µM [falling, partial curve]

COc1ccc(CCNC(=O)COC(=O)/C=C/c2cc(OC)c(OC)c(OC)c2)cc1OC
cell number change: -67.6% | AC50 [1]: 3.26 µM [falling, full curve] | AC50 [2]: 2.91 µM [falling, full curve]

COC(=O)c1cn(NC(=O)Cc2ccccc2Br)c(=O)c2ccccc12
AC50 [1]: 0.731 µM [rising, single point] | AC50 [2]: 0.82 µM [rising, full curve]

O=C(c1cccs1)N1CCN(c2ncc(C(F)(F)F)cc2Cl)CC1
cell number change: -13.9%

CCc1c(C)nc(N)n2c(SCC(=O)N3CCCc4ccccc43)nnc12
cell number change: 61.7% | AC50 [1]: 11.6 µM [rising, partial curve]

COc1ccc(C)cc1NC(=O)NCCCCc1ccccc1
cell number change: -69% | AC50 [1]: 17.8 µM [falling, partial curve] | AC50 [2]: 8.91 µM [falling, partial curve]

CC(C)c1ccc(-c2nnn(Cc3nc4ccccc4s3)n2)cc1
cell number change: 11.7% | AC50 [2]: 0.164 µM [falling, full curve]

O=C1CC(c2ccco2)CC2=C1C1c3ccccc3C(=O)N1c1ccccc1N2 (stereo not given)
cell number change: -5.25% | AC50 [2]: 13 µM [rising, single point]

CC1CCCN(C(=O)CSc2ncccn2)C1 (stereo not given)
cell number change: 0.794% | AC50 [2]: 9.2 µM [falling, single point]

COc1ccc(C(=O)CNc2cccc(F)c2)cc1
cell number change: -15% | AC50 [2]: 29.1 µM [falling, single point]

COc1ccc(C/C(N)=N/OC(C)=O)cc1OC
cell number change: -20.1% | AC50 [2]: 0.731 µM [falling, full curve]

Clc1ccc(-n2ncc3c(N4CCCCCC4)ncnc32)cc1
cell number change: 26.8% | AC50 [2]: 29.1 µM [rising, single point]

CCCN(CCC)CCNC(=O)CCC(=O)Nc1ccc2nc(N3CCOCC3)cc(C)c2c1
cell number change: 9.91% | AC50 [2]: 2.31 µM [rising, full curve]

CCc1ccc(-c2nnn(CCC#N)n2)cc1
cell number change: 29.7% | AC50 [2]: 18.4 µM [rising, single point]

COc1ccc(S(=O)(=O)N2CCOCC2)cc1NC(=O)c1ccc(=O)[nH]c1
cell number change: -13.7%

CC1CCCCN1Cc1c(O)ccc2c(=O)c(-c3ccccc3)coc12 (stereo not given)
cell number change: 7.98% | AC50 [2]: 0.00411 µM [rising, full curve, poor fit]

COc1ccc(-c2[nH]ncc2CN2CCCN(c3ccccc3)CC2)c(F)c1
cell number change: -8.53%

CC(C)C(NC(=O)C12CC3CC(CC(C3)C1)C2)C(=O)NC1=NCCS1 (stereo not given)
cell number change: -5.05% | AC50 [2]: 1.16 µM [rising, single point]

N#Cc1ccc(OCC(=O)OCC(=O)c2ccc[nH]2)cc1
cell number change: 4.18% | AC50 [2]: 3.26 µM [falling, partial curve]

Cc1cnc(C(=O)OCC(=O)c2c[nH]c3ccccc23)cn1
cell number change: 10.1% | AC50 [1]: 3.66 µM [falling, single point] | AC50 [2]: 4.11 µM [falling, single point]

O=C(OCC(=O)N1CCOCC1)c1ccc(Cl)cc1[N+](=O)[O-]
cell number change: 9.17% | AC50 [2]: 13 µM [rising, single point]

Cc1ccc(C)n1-c1ccc(-c2nnco2)cc1
cell number change: 38.4% | AC50 [2]: 29.1 µM [rising, single point]

CC1=C(C(=O)Nc2ccccc2)C(c2ccc(C)o2)n2ncnc2N1 (stereo not given)
cell number change: -8.66% | AC50 [2]: 0.00651 µM [falling, full curve, poor fit]

Cc1nccn1CC(O)COc1ccccc1 (stereo not given)
cell number change: 21.2% | AC50 [2]: 29.1 µM [rising, partial curve, poor fit]

CN([C@@H](Cc1ccc(OS(=O)(=O)c2cccc3cnccc23)cc1)C(=O)N1CCN(c2ccccc2)CC1)S(=O)(=O)c1cccc2cnccc12
cell number change: -10.9% | AC50 [2]: 3.26 µM [rising, partial curve]

Cc1cc(OCc2cc(C(=O)N3CCN(C)C(=O)[C@@H]3C)no2)cc(C)c1Cl
cell number change: -59.1% | AC50 [1]: 18.4 µM [falling, partial curve]

Cc1ccc(OCC(=O)Nc2c(C)nn(-c3ccccc3)c2C)c(Br)c1
cell number change: 77.9% | AC50 [1]: 2.59 µM [rising, partial curve]

COCCCNC(=O)Cn1c(=O)n(Cc2ccc(C(=O)NCCc3ccc(OC)c(OC)c3)cc2)c(=O)c2ccccc21
cell number change: -32.5% | AC50 [1]: 16.4 µM [falling, single point] | AC50 [2]: 23.1 µM [falling, single point]

COc1ccc(S(=O)(=O)Nc2c(NC3CCCCC3)c3ccccc3oc2=O)cc1OC
cell number change: -37.1% | AC50 [1]: 18.4 µM [falling, single point]

CCOC(=O)Cc1csc(NC(=O)CSc2ccc(Br)cc2)n1
cell number change: 13.4%

COc1ccc(NC(=O)CN(C)C(=O)CCCc2nc3ccccc3c(=O)[nH]2)cc1
cell number change: -0.33% | AC50 [2]: 2.91 µM [falling, single point]

COCCNCc1ccc(Cl)cc1Cl
cell number change: 116% | AC50 [1]: 0.116 µM [rising, full curve] | AC50 [2]: 0.146 µM [rising, full curve, poor fit]

C1CC1Cc1noc(CN2CCN(C3C4CC5CC(C4)CC3C5)CC2)n1 (stereo not given)
cell number change: 7.16% | AC50 [2]: 0.116 µM [falling, full curve, poor fit]

Cc1cc(C)nc(NC(N)=NC2CCCCC2)n1
cell number change: -38.8% | AC50 [1]: 7.31 µM [falling, partial curve, poor fit]

Cc1ccc(CNC(=O)c2cccc3c2C(=O)c2ccc(N4CCOCC4)cc2S3(=O)=O)cc1
cell number change: -24.5% | AC50 [1]: 0.82 µM [falling, partial curve] | AC50 [2]: 4.11 µM [falling, partial curve, poor fit]

COc1ccc(Cc2nnc(SCC(=O)NC(C)c3ccccc3)o2)cc1 (stereo not given)
cell number change: -0.606% | AC50 [2]: 0.164 µM [falling, full curve, poor fit]

COC(=O)c1c(O)c2c([nH]c1=O)CCCC2
cell number change: -4.17% | AC50 [1]: 6.51 µM [falling, single point] | AC50 [2]: 5.8 µM [falling, full curve, poor fit]

CCn1nnnc1SCCSc1nnnn1CC
cell number change: -100% | AC50 [1]: 23.1 µM [falling, partial curve]

COc1ccc2[nH]c(C(=O)O)c(NS(=O)(=O)c3ccc(C)cc3C)c2c1
cell number change: -7.75%

COCC(=O)N1CCc2ccc(NC(=O)c3ccccc3Cl)cc2C1
cell number change: 1.76%

CN(c1ccccc1)S(=O)(=O)c1ccc(C(=O)Nc2ncccc2O)cc1
cell number change: 14.7%

CCOC(=O)c1sc(NC(=O)CCC(=O)O)nc1C
cell number change: -39.2% | AC50 [1]: 3.66 µM [falling, partial curve, poor fit]

CCCCC(CC)COC1(c2ccccc2)OC(=O)c2ccccc21 (stereo not given)
cell number change: 12.3% | AC50 [1]: 3.26 µM [rising, single point] | AC50 [2]: 20.6 µM [falling, single point]

Cc1c(NC(=O)C(C)OC(=O)c2ncc(Cl)c(Cl)c2Cl)c(=O)n(-c2ccccc2)n1C (stereo not given)
cell number change: -29.8% | AC50 [1]: 2.06 µM [falling, partial curve, poor fit] | AC50 [2]: 3.66 µM [falling, single point]

C=CCn1c(C)cc(C(=O)CN2C(=O)c3ccccc3S2(=O)=O)c1C
cell number change: 46.3% | AC50 [1]: 10.3 µM [rising, partial curve, poor fit]

Cn1c(C(=O)N2CCOCC2)cnc1Sc1ncc(C(F)(F)F)cc1Cl
cell number change: 31.5% | AC50 [1]: 1.03 µM [rising, full curve, poor fit]

Cc1ccc(C(=O)CSc2n[nH]c(-c3ccco3)n2)cc1C
cell number change: 2.58% | AC50 [2]: 16.4 µM [rising, single point]

CCc1ccc(NC(=O)[C@H](NC(=O)[C@@H]2Cc3ccccc3CN2)c2ccccc2)cc1
cell number change: 20% | AC50 [1]: 0.164 µM [rising, full curve, poor fit] | AC50 [2]: 29.1 µM [rising, single point]

CN(C)C(=S)NC(=NCc1ccc([N+](=O)[O-])cc1)c1ccccc1
cell number change: -19.1% | AC50 [2]: 29.1 µM [falling, single point]

O=C(CCNS(=O)(=O)c1ccc(Br)s1)NCc1ccccc1
cell number change: 7.74% | AC50 [2]: 0.00461 µM [falling, full curve, poor fit]

CCOc1ccc(C(=O)Nc2nnc(NC(=S)Nc3ccccc3)s2)cc1
cell number change: -23.2% | AC50 [2]: 0.092 µM [falling, full curve, poor fit]

Cc1ccc2[nH]c(CNC(=O)c3ccc(F)cc3)cc2c1
cell number change: 1.65% | AC50 [2]: 0.58 µM [rising, single point]

CCCc1cc(=O)[nH]c(SCc2cc(C(=O)OC)c(C)o2)n1
cell number change: -11.3% | AC50 [2]: 0.103 µM [rising, full curve, poor fit]
